Results are given in words; binding and its absence hold for the method and conditions named. A result given as binding can be weak or reduced; the word gives no strength.
Biological target: M-CSF (human) (UniProt P09603)
Assay: peptide or protein array; both purified

Sequences of proteins named here, by UniProt entry; tags and fusion partners are left off. A change or cut given only in a name is not applied to a line headed by its entry.
UniProt P09603: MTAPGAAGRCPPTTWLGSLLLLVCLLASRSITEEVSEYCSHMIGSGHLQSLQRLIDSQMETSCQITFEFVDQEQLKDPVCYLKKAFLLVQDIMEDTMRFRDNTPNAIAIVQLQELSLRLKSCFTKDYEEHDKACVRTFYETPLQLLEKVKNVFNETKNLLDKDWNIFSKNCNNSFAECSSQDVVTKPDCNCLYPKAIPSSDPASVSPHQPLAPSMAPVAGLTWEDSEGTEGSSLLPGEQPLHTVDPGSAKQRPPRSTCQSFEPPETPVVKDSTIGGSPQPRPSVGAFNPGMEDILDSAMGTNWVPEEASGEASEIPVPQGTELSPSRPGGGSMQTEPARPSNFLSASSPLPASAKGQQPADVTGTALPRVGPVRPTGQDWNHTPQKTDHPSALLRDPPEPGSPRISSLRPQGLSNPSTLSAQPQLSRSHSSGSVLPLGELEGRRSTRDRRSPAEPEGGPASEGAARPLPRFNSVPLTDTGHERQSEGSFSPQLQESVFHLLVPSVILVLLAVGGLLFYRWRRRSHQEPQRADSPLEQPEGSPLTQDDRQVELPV

B1: EBV BARF1 (protein, UniProt P03228 21-221)
chain: VTAFLGERVTLTSYWRRVSLGPEIEVSWFKLGPGEEQVLIGRMHHDVIFIEWPFRGFFDIHRSANTFFLVVTAANISHDGNYLCRMKLGETEVTKQEHLSVVKPLTLSVHSERSQFPDFSVLTVTCTVNAFPHPHVQWLMPEGVEPAPTAANGGVMKEKDGSLSVAVDLSLPKPWHLPVTCVGKNDKEEAHGVYVSGYLSQ
- binding: binds
